Data: PubChem BioAssay AID504467 (National Center for Advancing Translational Sciences (NCATS), 2011)
Screen size: about 330,000 compounds; about 7,700 (2.3%) were called active. Inconclusive results, whose numbers are uncertain, are shown with a selection of clear calls. The call rests on the fitted dose curve; in most records, active means well fitted inhibition curve with a large enough effect; inconclusive means small, poorly fitted or top-dose-only effect, or effect the other way; inactive means flat fitted curve, though single readings scatter. Where the call is inconclusive, the potency comes from a doubtful curve fit.

Assay: qHTS screen for small molecules that inhibit ELG1-dependent DNA repair in human embryonic kidney (HEK293T) cells expressing luciferase-tagged ELG1; further: nearly all actives have a fitted effect of over 55% in size
Settings: HEK293T ELG1-luciferase reporter, luminescence, 16 h, DNA damage induced by 5-fluorouridine; activity change, negative = inhibition: at 46.1 µM (top of the series)
How it was run: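 In this reporter screen, reduction of luminescence relative to DMSO vehicle indicated activity. Compounds and 5-fluorouridine were added together to 2,000 cells per well, incubated for 16 hr at 37 °C, then developed with ONE-Glo.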
On the % scale 0 is the no-effect control and ±100 the full control effect; potency means the concentration at half of the fitted maximal effect.

SMILES | activity change, negative = inhibition | Potency
O=C(c1ccc(Oc2cc(Cl)cc(Cl)c2)o1)N1CCCCC1 | inactive: 2.1% | 
Cc1ccc(C(=O)N/C(=C\c2ccco2)C(=O)N2CCOCC2)cc1C |  | active: 20.6 µM
CCc1cccc(NC(=O)c2cccc3c2C(=O)N(C2CCCCC2)C3)c1 | inactive: -2.57% | 
CCOC(=O)c1ccc(/C=C2/C=C(c3ccccc3)N(c3ccc(Cl)c(C(=O)O)c3)C2=O)cc1 |  | inconclusive: 18.4 µM [inhibitor, single point]
Cc1ccc(N=c2sc(C)c(C)n2C)cc1 |  | inconclusive: 18.4 µM [activator, partial curve]
O=S(=O)(NCc1ccccn1)c1cc(C(F)(F)F)ccc1Cl | inactive: -0.0944% | 
O=c1c2ccccc2cnn1CCOc1ccccc1 |  | inconclusive: 0.206 µM [activator, partial curve]
CCc1c(C)nc2ncnn2c1Nc1ccc(C(C)=O)cc1 |  | inconclusive: 20.6 µM [activator, partial curve]
C=CCn1c(-c2oc3nc(-c4ccccc4)cc(-c4ccccc4)c3c2N)n[nH]c1=S |  | inconclusive: 23.1 µM [inhibitor, partial curve]
N#Cc1ccc(-c2cn3c(n2)SCC3)cc1 |  | inconclusive: 16.4 µM [activator, partial curve]
Cc1cc(Nc2ccc(Cl)cc2)nc(N2CCOCC2)n1 | inactive: -11.5% | 
Cc1ccc(S(=O)(=O)N2CCn3cccc3C2C)cc1 (centres undefined) | inactive: 7.86% | 
CCCS/C(N)=N/N=C/c1cc(C)ccc1O |  | inconclusive: 9.2 µM [activator, partial curve]
Cc1ccc(-n2ncc3c(SCc4cccc(C)c4)ncnc32)cc1 |  | inconclusive: 18.4 µM [activator, partial curve]
COc1ccc(CNc2ccc3c(c2)CCC3)cc1Br |  | inconclusive: 29.1 µM [activator, single point]
CC1(C(=O)N2CC3(CC(c4cccc(NC(=O)CC(c5ccccc5)c5ccccc5)c4)=NO3)C[C@@H]2C(N)=O)CC1 (some centres undefined) | inactive: -14.4% | 
O=C(c1ccc(Cl)c(Cl)c1)N1CCC(=O)N(C(COCc2cccc(C(F)(F)F)c2)Cc2ccccc2)CC1 (centres undefined) |  | inconclusive: 13 µM [inhibitor, partial curve]
C=C(C)CN=C1NN=C(c2cc(C)n(-c3ccc(C)cc3)c2C)CS1 | inactive: -7.94% | 
COc1cccc(CC(=O)N2CCC(CCC(=O)Nc3cccc(OC)c3)CC2)c1 |  | inconclusive: 23.1 µM [activator, partial curve, poor fit]
Cc1cc(C(=O)NC2CCC(C)CC2)c(C)o1 (centres undefined) |  | inconclusive: 10.3 µM [activator, partial curve]
Cc1ccc(C)c(NCC(=O)NNC(=S)Nc2ccccc2)c1 | inactive: 6.83% | 
Cc1cccc(C(P(=O)(c2ccccc2)c2ccccc2)P(=O)(c2ccccc2)c2ccccc2)n1 | inactive: 11.5% | 
CCOC(=O)c1nnn(CC(=O)NC(=O)Nc2ccc(F)cc2)c1C(=O)OCC | inactive: -2.41% | 
CN(C)CCCN(C(=O)c1ccc(Br)s1)c1nc2cc3c(cc2s1)OCCO3 | inactive: 21% | 
CCOc1ccc(OCC)c(NC(=O)CN(C)S(=O)(=O)c2ccc3nc(C)sc3c2)c1 |  | inconclusive: 23.1 µM [inhibitor, single point]

Rewritten field by field: four of the compounds above
O=C(c1ccc(Oc2cc(Cl)cc(Cl)c2)o1)N1CCCCC1
  activity change, negative = inhibition: inactive: 2.1%
Cc1ccc(C(=O)N/C(=C\c2ccco2)C(=O)N2CCOCC2)cc1C
  Potency: active: 20.6 µM
CCc1cccc(NC(=O)c2cccc3c2C(=O)N(C2CCCCC2)C3)c1
  activity change, negative = inhibition: inactive: -2.57%
CCOC(=O)c1ccc(/C=C2/C=C(c3ccccc3)N(c3ccc(Cl)c(C(=O)O)c3)C2=O)cc1
  Potency: inconclusive: 18.4 µM [inhibitor, single point]

Reprinted at random: 2 entries already listed, in no set order.
SMILES | activity change, negative = inhibition | Potency
O=c1c2ccccc2cnn1CCOc1ccccc1 |  | inconclusive: 0.206 µM [activator, partial curve]
CC1(C(=O)N2CC3(CC(c4cccc(NC(=O)CC(c5ccccc5)c5ccccc5)c4)=NO3)C[C@@H]2C(N)=O)CC1 (some centres undefined) | inactive: -14.4% | 

More records:

SMILES | activity change, negative = inhibition | Potency
COc1ccc(-n2c(Cc3cccn3C)nnc2SCC(=O)Nc2ccc(C)c(Cl)c2)cc1 |  | inconclusive: 23.1 µM [inhibitor, single point]
Clc1ccc(CN2C3=NCCN3c3ccccc32)cc1Cl |  | inconclusive: 0.164 µM [inhibitor, full curve, poor fit]
COc1ccc(-n2cc(CN[C@H]3CCCCNC3=O)c(-c3cccc(F)c3)n2)cc1 |  | inconclusive: 29.1 µM [inhibitor, single point]
Cc1cc(C)cc(C(=O)NC(CC(N)=O)c2ccc(N3CCC(Br)CC3)c([N+](=O)[O-])c2)c1 (centres undefined) | inactive: -0.172% | 
CCOC(=O)C1Oc2ccccc2C(c2ccc(OC)cc2)=C1C(=O)OC (centres undefined) | inactive: -1.26% | 
CN1CCN(C(=O)C2=C[C@@H](c3csc4ccccc34)C[C@@H](OCc3ccc(CO)cc3)O2)CC1 | inactive: -13.5% | 
CCOc1ccc(NC(=O)CNc2cccc(S(=O)(=O)N3CCCCCC3)c2)cc1OCC |  | inconclusive: 25.9 µM [inhibitor, single point]
CCCOc1ccc(C(C)=O)cc1CSCCC#N | inactive: 3.57% | 
Cc1ccc(-n2[nH]c(C)c(/C=C3/C=Nc4ccccc43)c2=O)cc1C |  | inconclusive: 11.6 µM [activator, partial curve]
CC(Sc1nncs1)C(=O)NCC(=O)Nc1ccc(F)c(F)c1F (centres undefined) | inactive: 3.53% | 
O=C(CSc1nc2cc(Cl)ccc2o1)Nc1ccc(N2CCOCC2)cc1 |  | inconclusive: 4.11 µM [activator, full curve]
COC(=O)c1[nH]c2ccc(Cl)cc2c1NC(=O)CN1CCc2cc(OC)c(OC)cc2C1 |  | active: 9.2 µM
O=C(CNC(=O)c1ccco1)Nc1ccc(N2CCCCCC2)cc1 |  | inconclusive: 18.3 µM [activator, partial curve]
O=C(COC(=O)/C=C/c1ccc(Cl)cc1)NC1CCCC1 | inactive: 14.4% | 
CC(=O)c1cc(C#N)c(N2CCN(c3ccccc3)CC2)nc1C |  | inconclusive: 29.1 µM [inhibitor, single point]
CN1C(=O)C(O)(CC(=O)c2ccccn2)c2cc(Br)ccc21 (centres undefined) | inactive: 1.01% | 
CS(=O)(=O)N1CCc2cc(C(=O)Nc3ccc(COCC(F)(F)F)cc3)ccc21 |  | inconclusive: 9.2 µM [inhibitor, partial curve, poor fit]
COc1ccc(OC)c(C2CC(=O)c3c([nH]c(C(=O)OCC4CCCO4)c3C)C2)c1 (centres undefined) |  | active: 10.3 µM
O=C(/C=C/C=C/c1ccc2c(c1)OCO2)N1CCCCC1 |  | inconclusive: 10.3 µM [activator, partial curve]
COc1cc(/C=C/C(=O)OCC(=O)NCc2ccc3c(c2)OCO3)cc(OC)c1OC | inactive: -1.94% | 
O=C(C1CCCC1)N1CCC(CC2CC(c3ccc(Cl)cc3)=NO2)(C(=O)NCC2CCCCC2)CC1 (centres undefined) |  | inconclusive: 23.1 µM [inhibitor, single point]
CC(C)[C@H](NC(=O)c1ccco1)C(=O)OCC(=O)N1CCc2ccccc21 |  | inconclusive: 14.6 µM [activator, partial curve]
C/C(=N\Nc1ccc(F)cc1F)c1ccc(F)cc1 | inactive: 3.79% | 
CCOP(=O)(OCC)C(NC(=O)Nc1ccc(Cl)cc1)c1ccccc1 (centres undefined) | inactive: 0.361% | 
Cc1ccc(/C=C2\S/C(=N/S(=O)(=O)c3cccs3)NC2=O)cc1 | inactive: -0.88% | 

SMILES | activity change, negative = inhibition | Potency
O=c1c2ccccc2nc2n1CCc1c-2[nH]c2ccccc12 |  | inconclusive: 2.82 µM [activator, full curve]
COc1ccc(-n2c(COc3cccc(C)c3)nnc2SCC(=O)O)cc1 | inactive: -3.49% | 
CCn1c(SCC(=O)c2ccccc2)nnc1-c1cnccn1 |  | inconclusive: 11.2 µM [activator, partial curve, poor fit]
Cn1c(SCC(=O)C(C)(C)C)nnc1-c1ccccn1 |  | inconclusive: 23.1 µM [activator, partial curve]
Cc1cc(NC(=O)Cc2ccc(Br)cc2)no1 | inactive: 3.84% | 
Cc1ccc(/C=N/c2sc3c(c2C#N)CCC3)o1 |  | inconclusive: 14.6 µM [activator, partial curve]
COc1ccc(NC(=S)N2N=CCC2c2ccccc2)cc1 (centres undefined) |  | inconclusive: 5.17 µM [activator, partial curve]
O=S(=O)(c1ccc(F)cc1)N1CCCC(c2nc(-c3ccc(F)cc3)no2)C1 (centres undefined) |  | inconclusive: 32.6 µM [activator, single point]
Cc1c([N+](=O)[O-])cc(S(=O)(=O)Nc2ccc(-c3ccc(N4CCCC4)nn3)cc2)cc1[N+](=O)[O-] |  | inconclusive: 20.6 µM [activator, single point]
Cc1ccc(C(C)C)c(OCC(=O)NNCC(=O)Nc2cccc(F)c2)c1 | inactive: -13.8% | 
O=C(Nc1ccc(S(=O)(=O)N2CCOCC2)cc1)c1ccc(Cl)cc1Cl | inactive: 0.344% | 
Cc1nnc(N2CCCC(C(=O)Nc3cc(F)ccc3F)C2)c2nn(-c3ccccc3)c(C)c12 (centres undefined) |  | inconclusive: 5.8 µM [inhibitor, full curve, poor fit]
COc1ccc(C(=O)C2CCCN(C(=O)C3=CCCC3)C2)cc1OC (centres undefined) | inactive: 0.815% | 
COc1cccc(NC(=O)COc2ccc(Br)c(C)c2)c1 |  | inconclusive: 29.1 µM [activator, single point]
CCCc1nc2sc3ccccc3c(=O)c2c(=O)n1Cc1ccc(OC)cc1 |  | active: 23.1 µM
O=C(CN1CCN(S(=O)(=O)c2ccccc2F)CC1)Nc1ccccc1C(=O)c1ccccc1 |  | active: 11.6 µM
O=C(O)c1cc(O)ccc1N=Nc1ccccc1 | inactive: -25.2% | 
COc1ccc(S(=O)(=O)Nc2cccc(F)c2)cc1C | inactive: 5.62% | 
CCn1ncc(C2=NOC(C(=O)Nc3ccc4c(c3)OCO4)C2)c1C (centres undefined) |  | inconclusive: 8.2 µM [inhibitor, partial curve, poor fit]
COc1cccc2c3c(c(=O)[nH]c12)CCC(C)(C)O3 |  | inconclusive: 25.9 µM [activator, single point]
N/C(Cc1cccs1)=N\OC(=O)COc1ccc(Br)cc1 |  | inconclusive: 29.1 µM [activator, single point]
COc1ccc(-n2nnnc2SCC(=O)c2ccc(OC)c(OC)c2)cc1 |  | inconclusive: 29.1 µM [inhibitor, single point]
O=C1COc2ccc(C(=O)COC(=O)c3c(F)cccc3Cl)cc2N1 |  | inconclusive: 35.5 µM [activator, single point]
COc1cc(/C=C/CO)cc(OC)c1OC/C=C(\C)CCC=C(C)C | inactive: -5.48% | 
